This passage reports AC50 results from PubChem BioAssay AID493014 (National Center for Advancing Translational Sciences (NCATS), 2011).

The list shows a part of the results. The main result of the screen is listed elsewhere. These columns were measured beside it and carry no call. Most of these compounds were active or inconclusive in the main read-out, so they are no random draw. The note in brackets gives the kind of curve behind each potency; many fits are weak.

The assay can be described thus: qHTS Assay to Find Inhibitors of Chronic Active B-Cell Receptor Signaling. The note with it: ABC-DLBCL IkBa-CBG/CBR reporter, luminescence ratio (green luciferase fused to IkBa over red control in TMD8 lymphoma cells), 4 h. The gist of the method: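 Concentration-response series (up to 46 uM) were applied to TMD8 dual-reporter cells for 4 h at 37C with doxycycline. Green/red ratio, after filter-overlap correction, defined %Activity; red signal alone was normalised to basal cells and zero luminescence.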
A general note: In qHTS, concentration-response curves come from the screen itself.

[1] abbreviates: measured here: CBR red luminescence, cell number.
Setting [2] is: measured here: IkBa-CBG green luminescence.

With `Cc1cccc(NC(=O)NCc2ccc3c(c2)cc(C)n3C)c1`, the AC50 (usually the midpoint of the concentration-response curve, whichever way the signal moves) under setting [1] was 23.1 µM [rising, partial curve, poor fit].
In the case of `CC(/C=C\c1ccccc1)=C/C(=O)O`, the AC50 under setting [1] was 4.47 µM [rising, full curve, poor fit].
`Cc1ccc(S(=O)(=O)CCC(=O)Nc2ccccc2C)cc1`: under setting [1], the AC50 was 28.2 µM [falling, single point].
Regarding `CC(C)c1ccc(CN2CC(C(=O)Nc3ccccc3)CC2=O)cc1` (stereo not drawn), the AC50 under setting [1] was 35.5 µM [falling, partial curve, poor fit].
With `C=CC[C@H](CC(=O)N(CCO)Cc1ccccc1)C(=O)N[C@H](COC(=O)[C@@H](CC=C)CC(=O)OC(C)(C)C)c1ccccc1`, under setting [1], the AC50 is 14.6 µM [falling, single point].
On to `O=[N+]([O-])c1nn(-c2ccc3c(c2)OCCO3)n(O)c1=NC1CCCC1`, for which the AC50 under setting [1] is 0.058 µM [falling, full curve, poor fit].
In the case of `COc1cc(Nc2cc(C)nc3ncnn23)cc(OC)c1`, under setting [1], the AC50 was 29.1 µM [rising, partial curve, poor fit].
`COC(=O)c1ccc(C(=O)Nc2nc3cc(N)c(C)cc3s2)cc1`: the AC50 under setting [1] was 0.1 µM [falling, full curve, poor fit].
With `Cc1nc2ccc(N3C(=O)CCC3=O)cc2[nH]1`, the AC50 under setting [1] was 16.4 µM [rising, single point].
As for `C=CCn1c(-c2ccc(OC)cc2)nc2nc3ccccc3nc21`, the AC50 under setting [2] was 20.6 µM [rising, partial curve, poor fit].
In the case of `Cc1ccc(-c2c(C(=O)N/N=C/c3cccs3)nnn2-c2nonc2N)cc1`, the AC50 under setting [1] is 14.1 µM [falling, single point].
For the molecule `CC(=O)Nc1ccc(/C=N/NC(=O)c2cccs2)cc1`, the AC50 under setting [1] is 11.2 µM [falling, partial curve].
With `Cc1occc1C(=O)NNC(=S)NCc1ccc(Cl)cc1`, under setting [1], the concentration at half-maximal activity (AC50) is 8.91 µM [falling, partial curve, poor fit].
On the same count and under the same terms, the value for `COc1cc2c(cc1OC)CN(C(=O)COc1ccc(C)c(C)c1)CC2` was 32.6 µM [rising, single point]; that for `COc1cccc(C(=O)Nc2nc(-c3ccc4c(c3)OCO4)cs2)c1` was 13 µM [falling, partial curve].
For `Clc1cc(Br)ccc1NCc1cccnc1`, the AC50 under setting [1] is 25.1 µM [rising, single point].
On to `Cc1ccc(S(=O)(=O)NCCOc2nc(N3CCOCC3)nc(N3CCOCC3)n2)cc1`, for which, under setting [1], the AC50 was 3.26 µM [rising, full curve].
For `Cc1ccc(CSCCC(=O)NCc2ccc(F)cc2Cl)cc1`, the AC50 is 1.26 µM [falling, full curve, poor fit] under setting [1] and 0.708 µM [rising, full curve, poor fit] under setting [2].
As for `Cc1cc(/C=C2\SC(=S)N(C)C2=O)c(C)n1-c1ccc(O)cc1`, the AC50 under setting [1] was 35.5 µM [falling, single point] and the AC50 under setting [2] is 35.5 µM [rising, partial curve, poor fit].
Take `C=CC1C(OC2OC(CO)C(O)C(O)C2O)OC=C(C(=O)OC)C1CC1CC(=O)CC(CC(=O)CCc2ccc(O)cc2)O1` (stereo not drawn): under setting [1], the AC50 was 3.16 µM [rising, single point].
For `O=S(=O)(NCC(c1ccco1)S(=O)(=O)c1cccs1)c1ccc(Cl)cc1` (stereo not drawn), the AC50 under setting [1] is 12.6 µM [falling, partial curve, poor fit].
Regarding `CC(C)(C)c1cc(CN2CCN(CCO)CC2)cc(C(C)(C)C)c1O`, under setting [1], the AC50 is 1.84 µM [falling, full curve].
`O=c1o[nH]c(-c2ccccc2)c1C=Nc1ccc(Cl)cc1`: the AC50 under setting [1] is 11.2 µM [falling, partial curve, poor fit].
Regarding `NCCCCCc1nnc(SCc2cccc(Cl)c2)o1`, the AC50 under setting [1] is 6.31 µM [falling, single point].
Still for that read-out and setting: the value for `O=C(Nc1ccc2c(c1)OC1(CCCC1)O2)C1CC1` was 3.16 µM [rising, full curve]; that for `CCOC(=O)CC(NS(=O)(=O)Cc1ccccc1)c1ccc(C)cc1` (stereo not drawn) was 16.4 µM [rising, partial curve].
With `CCOC(=S)SCc1cn2ccc(C)cc2n1`, the AC50 is 2.91 µM [rising, partial curve, poor fit] under setting [1] and 23.1 µM [falling, single point] under setting [2].
With `NC(=O)CSc1nnc(SCc2ccc(F)cc2)s1`, the AC50 under setting [1] was 35.5 µM [falling, single point].
`O=C(NC(Cc1ccccc1)c1nc2ccccc2[nH]1)c1cccc([N+](=O)[O-])c1` (stereo not drawn): the AC50 under setting [1] is 35.5 µM [falling, single point].
`CCCOc1ccc(-c2c(C(=O)N/N=C/c3ccc(C)cc3)nnn2-c2nonc2N)cc1`: the AC50 under setting [1] was 1.41 µM [rising, full curve, poor fit].
Still for that read-out and setting: as for `CC(C)c1cccc(-c2ccc3c(c2)S(=O)(=O)c2cccc(C(=O)O)c2C3=O)c1`, the figure is 9.2 µM [rising, partial curve, poor fit].
Still for that read-out and setting: the value for `CCN(CC)S(=O)(=O)c1cc(C(=O)NC2=NCCS2)ccc1Cl` was 6.51 µM [rising, single point]; that for `CCCC(=O)NC(=S)Nc1ccc(N2CCOCC2)c(Cl)c1` was 4.61 µM [rising, full curve].
With `Cc1ccc2c(c1)c(CC(=O)Nc1ccc(F)cc1)c(C(=O)O)n2C`, under setting [1], the AC50 was 6.51 µM [falling, single point].
For `Cc1ccc(N2CCN(C(=O)N3CCCC3)CC2)cc1Cl`, the AC50 under setting [1] was 23.1 µM [falling, single point].
On the same count and under the same terms, the value for `O=C(Nc1nccs1)c1ccc(CSc2nnnn2-c2ccccc2)cc1` was 7.08 µM [falling, full curve, poor fit]; that for `COc1ccc(CN=C(C#N)C2=C(O)c3ccccc3C2=O)cc1` was 12.6 µM [falling, partial curve, poor fit]; that for `CCC(=O)Nc1cccc(C(=O)/C=C/c2cccs2)c1` was 17.8 µM [falling, single point].
Regarding `O=C(OCC(=O)N1CCCCC1)c1cc2ccccc2cc1O`, the AC50 under setting [1] was 17.8 µM [falling, partial curve, poor fit].
Still for that read-out and setting: as for `COc1ccc(N/C=C(\C#N)S(=O)(=O)c2ccc(OC)cc2)cc1`, the figure is 17.8 µM [rising, partial curve, poor fit].
